The campaign covered roughly 6,900 compounds. Fewer than 10 were called active. Calls follow the shape of the dose curve; as a rule, active = well fitted curve in the direction sought with a large enough effect; inconclusive = small, poorly fitted or top-dose-only effect, or another doubt; inactive = no such curve, though single readings can be large or run the other way. The list shows a part of the results.
What follows are compounds tested against Metallo-beta-lactamase type 2 (Klebsiella pneumoniae) (UniProt C7C422) (assay: qHTS to identify inhibitors of the New Delhi Metallo-beta-lactamase (NDM): primary screen against the NCATS Gemini Collection). Settings: NDM-1 enzyme, meropenem hydrolysis, absorbance 300 nm; at 38.4 µM (top of the series) unless noted.
In short: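 Meropenem hydrolysis (50 uM final) by 2 nM NDM-1 read as 300 nm absorbance after 30 min, following >30 min compound–enzyme preincubation in HEPES pH 7.0 with 1 uM ZnSO4 and 0.01% Tween20.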
Also: % of control where 0% means no effect.

By UniProt entry, the sequences of proteins in these tests, tags left out. Where a name states a change or a piece, a line headed by the entry shows the natural chain unless it says otherwise.
UniProt C7C422: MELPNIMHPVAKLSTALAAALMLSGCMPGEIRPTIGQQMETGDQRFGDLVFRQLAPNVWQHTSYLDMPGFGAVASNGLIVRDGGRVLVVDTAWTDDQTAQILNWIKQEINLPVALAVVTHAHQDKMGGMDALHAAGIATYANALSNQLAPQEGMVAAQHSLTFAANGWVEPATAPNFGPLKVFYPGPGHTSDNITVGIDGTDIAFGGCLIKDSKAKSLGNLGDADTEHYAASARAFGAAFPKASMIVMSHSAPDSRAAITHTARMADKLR

Activity % (negative = inhibition), inactive:
CN1CCC2(CCC1=O)CN(C(=O)c1ccc(Cn3cccn3)o1)CCN2C (stereo not drawn) 14.8%
CC1(c2noc(-c3cccnc3)n2)CCN(C(=O)CCC(=O)n2ncc3c(Cl)cccc32)CC1 -2.35%
Cc1noc(-c2ccco2)c1C(=O)NC(C)c1ccccc1 (stereo not drawn) 49.3%
CCn1cc(S(=O)(=O)N2C[C@@H](Oc3ccccc3)C[C@H]2C(=O)N2CCCC2)cn1 19.8%
Cc1cc(C(=O)N2C[C@@H](CN3CCCCCC3)[C@@H](CO)C2)nc(C)n1 4.96%
O=[S+]([O-])(c1ccccc1)N1CC2(CCCCN2Cc2cccnc2)Cc2ccccc21 (stereo not drawn) 6.86%
Cc1ccccc1-n1cc(CNC(=O)C(c2cccc(F)c2)N(C)C)cn1 (stereo not drawn) -0.586%
CN(CC1CCOC1)S(=O)(=O)c1cccs1 (stereo not drawn) 0.158%
COCCOc1cc(C)c2c(c1C)C[C@H](C(C)C(=O)NCc1cccs1)CC2 (stereo partly drawn) -0.141% [at 57.5 µM]
O=C(N[C@@H]1CCOC[C@H]1OCc1cscn1)c1ccccc1-n1cccn1 -1.09%
O=C(c1n[nH]c2c1CCCC2)N1CCCC2(C1)Nc1cccnc1NC2=NC1CCCC1 (stereo not drawn) 12.3%
CNC(=O)c1cc(C)nc2onc(C3CCCN3C(=O)C(C)(C)C)c12 (stereo not drawn) -1.19%
Cc1ccc(C(=O)N2CCC(C(=O)N3CCC(N4CCCC4=O)CC3)CC2)cc1 -1.35%
CCc1ccc(S(=O)(=O)N2[C@@H]3CC[C@H]2CC(NC(=O)c2ccc(F)cc2)C3)cc1 (stereo partly drawn) 0.104%
Cn1nc(CN2CCOCC2)c2c1CCN(S(=O)(=O)c1cccnc1)C2 -1.1%
COc1ccc(CN2CCNC(=O)C2CC(=O)NCc2ccncc2)cc1OC (stereo not drawn) 11.3%
CC(=O)N1CCN(Cc2snnc2C(C)C)CC(O)C1 (stereo not drawn) 9.42%
COc1ccc(C(=O)N[C@H](C)c2c(-c3ccc(F)cc3)noc2C(=O)O)cc1 10.9% [at 57.5 µM]
Cc1ccc(OCc2nc(C3CCN(S(=O)(=O)Cc4ccccc4F)C3)no2)cc1 (stereo not drawn) -4.14%
CCCn1cc(C(=O)N2C[C@@H](N(C)C)[C@H](c3ccc(C)cc3)C2)c(C)n1 5.42%
c1cnc(N2CCOCC2)c(OC2CCNC2)n1 (stereo not drawn) 2.33%
CC(C)Cc1cc(C(=O)N2CCc3[nH]nc(-c4ccccc4)c3C2)nc(=O)[nH]1 34.9%
C=CCN(C)C(=O)[C@@H](C)C1CC[C@@]2(C)Cc3sc(CSc4ccccc4)nc3[C@@H](C)[C@@H]2[C@H]1O (stereo partly drawn) 1.83%
CN1C[C@@H](NC(=O)NC2CCCCC2)C[C@H]1c1nc(-c2cnccn2)no1 -2.36% [at 57.5 µM]
COc1ccc(NC(=O)c2nc3sccn3c2-c2cccc(OC)c2)cc1 27.7%
Cc1noc(-c2ccccc2OC2CCNC2)n1 (stereo not drawn) 4.04%
CN1CCOC[C@H]2CCN(C(=O)c3cccs3)C[C@H]21 8.25%
CNC(=O)N1CCC(C2CCN(C(=O)Cc3c(F)cccc3Cl)C2)CC1 (stereo not drawn) -6.12%
COc1ccc(CNC(=O)[C@@H]2Cc3nc[nH]c3CN2C(=O)NC(C)C)cc1 4.18% [at 57.5 µM]
O=C(Nc1cccc(F)c1)N1Cc2[nH]cnc2C[C@H]1c1nc(-c2ccncc2)no1 -10% [at 57.5 µM]
CN1CCC(OC2CCN(C(=O)COc3ccc(Cl)cc3)CC2)CC1 -0.0934%
COc1cccc(CC(=O)N2CCCC3(C2)NC(=O)N(Cc2cccc(Cl)c2)C3=O)c1 (stereo not drawn) 2.89%
CCn1c(CC2CCN(Cc3ccccc3C#N)CC2)nn(C)c1=O -0.151%
Cc1cc(Cn2cc3c4c(cccc42)[C@H](CC(C)C)N[C@H](C(=O)NC2CCCC2)C3)no1 9.91% [at 57.5 µM]
COCc1nnc2n1CCC(NC(=O)C1(c3ccc(OC)cc3)CC1)CC2 (stereo not drawn) -1.84%
NC(=O)[C@@H](Cc1ccccc1)NC(=O)[C@@H]1C[C@@H](NS(=O)(=O)c2cccs2)CCN1C(=O)CSCC(=O)O 0.756%
CC(C)C1CN(C(=O)CNC(=O)N(C)C)CCCN1Cc1ccc(F)cc1 (stereo not drawn) 0.0087%
CN1CCCCC(CC(=O)NCc2cc(F)ccc2F)C1=O (stereo not drawn) 26.1%
C=CCNC(=O)C[C@@H]1CCN(C(=O)c2cccnc2)C[C@@H]1CC 41.7% [at 57.5 µM]
Cc1ccsc1C(=O)N1CCc2nnc([C@@H]3C[C@@H](O)CN3C(C)C)n2CC1 0.912%
CCc1nnc(CN2CCC(C(=O)Nc3cccc(-c4ccco4)c3)CC2)o1 9.16%
O=C(C(=O)N1CCc2[nH]nc(-c3ccccc3F)c2C1)c1ccco1 15%
Cn1nc(-c2nc(C3CCOC3)no2)cc1-c1ccccc1 (stereo not drawn) -2.22%
O[C@@H]1C[C@@H](c2nc(-c3ccccn3)no2)N(Cc2cc3ccccc3o2)C1 0.714% [at 57.5 µM]
Cc1cc(=O)n(CC(=O)N2CCCC(C)(c3ccccc3)C2)nc1C (stereo not drawn) 5.67%
CN(C)Cc1cc(CC2(NCc3cccc4c3OCO4)COC2)no1 0.728% [at 57.5 µM]
O=c1cc(CN2CCCC(c3nccn3Cc3ccccc3)C2)[nH]c(=O)[nH]1 (stereo not drawn) 185%
COCCn1cnnc1C(C)NC(=O)CCc1nc(-c2ccccc2OC)no1 (stereo not drawn) 12.6%
O=C(c1ccccc1F)N1CCn2ncc(C(=O)N3CCOCC3)c2C1 -13.7%
CS(=O)(=O)c1ccc(OC[C@H]2C[C@@H](NC(=O)c3ccccc3)[C@H](O)[C@@H]2O)cc1 17.7% [at 57.5 µM]
O=C(NCCN1CCCCC1)C1CN(S(=O)(=O)c2cccnc2)CC12CCCCC2 (stereo not drawn) 10.8%
O=C(CCNc1c(-c2cccc(F)c2)nc2cnccn12)NCc1ccc(Cl)cc1 0.57%
Cc1nc(CCNc2cc(C3CC(O)C3)nc(N)n2)nc2c1CCC2 (stereo not drawn) -0.523%

3 compounds from above, ordered by number of heavy atoms, falling.
Activity % (negative = inhibition), inactive:
COCCn1cnnc1C(C)NC(=O)CCc1nc(-c2ccccc2OC)no1 (stereo not drawn) 12.6%
CCc1nnc(CN2CCC(C(=O)Nc3cccc(-c4ccco4)c3)CC2)o1 9.16%
c1cnc(N2CCOCC2)c(OC2CCNC2)n1 (stereo not drawn) 2.33%
